No constants are given. Whether binding was seen depends on the method and setting. In cells and extracts the contact can be indirect. A yes stands for co-enrichment or nearness to the bait. Other partners may have been found. For part of these data: Tags and fused reporters may be left off the sequences shown.
T1: CPEB3-HA (cytoplasmic polyadenylation element binding protein 3, HA-tagged), expressed in HEK293T (mouse) (UniProt Q7TN99)
T1 sequence: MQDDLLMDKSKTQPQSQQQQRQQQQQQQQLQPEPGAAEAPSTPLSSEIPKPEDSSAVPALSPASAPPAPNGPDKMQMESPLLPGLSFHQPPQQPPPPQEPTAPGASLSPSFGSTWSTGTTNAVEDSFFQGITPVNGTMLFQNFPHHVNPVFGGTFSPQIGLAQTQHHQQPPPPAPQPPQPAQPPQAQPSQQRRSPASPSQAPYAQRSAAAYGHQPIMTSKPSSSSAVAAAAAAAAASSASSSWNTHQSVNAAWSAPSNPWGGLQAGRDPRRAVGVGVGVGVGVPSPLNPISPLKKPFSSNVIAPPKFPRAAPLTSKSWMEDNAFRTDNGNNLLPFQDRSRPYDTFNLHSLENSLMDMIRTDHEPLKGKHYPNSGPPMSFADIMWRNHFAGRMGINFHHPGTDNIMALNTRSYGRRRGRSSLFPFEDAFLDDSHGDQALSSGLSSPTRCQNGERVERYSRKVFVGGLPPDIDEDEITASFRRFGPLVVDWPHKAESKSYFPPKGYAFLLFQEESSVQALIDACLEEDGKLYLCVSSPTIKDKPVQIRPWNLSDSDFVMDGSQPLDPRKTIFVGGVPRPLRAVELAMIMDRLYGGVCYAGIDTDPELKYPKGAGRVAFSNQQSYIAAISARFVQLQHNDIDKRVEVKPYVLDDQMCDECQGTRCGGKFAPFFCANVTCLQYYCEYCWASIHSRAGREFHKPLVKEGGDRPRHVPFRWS

Amino acid sequences for entries named in this document (tags omitted).
UniProt Q7L576: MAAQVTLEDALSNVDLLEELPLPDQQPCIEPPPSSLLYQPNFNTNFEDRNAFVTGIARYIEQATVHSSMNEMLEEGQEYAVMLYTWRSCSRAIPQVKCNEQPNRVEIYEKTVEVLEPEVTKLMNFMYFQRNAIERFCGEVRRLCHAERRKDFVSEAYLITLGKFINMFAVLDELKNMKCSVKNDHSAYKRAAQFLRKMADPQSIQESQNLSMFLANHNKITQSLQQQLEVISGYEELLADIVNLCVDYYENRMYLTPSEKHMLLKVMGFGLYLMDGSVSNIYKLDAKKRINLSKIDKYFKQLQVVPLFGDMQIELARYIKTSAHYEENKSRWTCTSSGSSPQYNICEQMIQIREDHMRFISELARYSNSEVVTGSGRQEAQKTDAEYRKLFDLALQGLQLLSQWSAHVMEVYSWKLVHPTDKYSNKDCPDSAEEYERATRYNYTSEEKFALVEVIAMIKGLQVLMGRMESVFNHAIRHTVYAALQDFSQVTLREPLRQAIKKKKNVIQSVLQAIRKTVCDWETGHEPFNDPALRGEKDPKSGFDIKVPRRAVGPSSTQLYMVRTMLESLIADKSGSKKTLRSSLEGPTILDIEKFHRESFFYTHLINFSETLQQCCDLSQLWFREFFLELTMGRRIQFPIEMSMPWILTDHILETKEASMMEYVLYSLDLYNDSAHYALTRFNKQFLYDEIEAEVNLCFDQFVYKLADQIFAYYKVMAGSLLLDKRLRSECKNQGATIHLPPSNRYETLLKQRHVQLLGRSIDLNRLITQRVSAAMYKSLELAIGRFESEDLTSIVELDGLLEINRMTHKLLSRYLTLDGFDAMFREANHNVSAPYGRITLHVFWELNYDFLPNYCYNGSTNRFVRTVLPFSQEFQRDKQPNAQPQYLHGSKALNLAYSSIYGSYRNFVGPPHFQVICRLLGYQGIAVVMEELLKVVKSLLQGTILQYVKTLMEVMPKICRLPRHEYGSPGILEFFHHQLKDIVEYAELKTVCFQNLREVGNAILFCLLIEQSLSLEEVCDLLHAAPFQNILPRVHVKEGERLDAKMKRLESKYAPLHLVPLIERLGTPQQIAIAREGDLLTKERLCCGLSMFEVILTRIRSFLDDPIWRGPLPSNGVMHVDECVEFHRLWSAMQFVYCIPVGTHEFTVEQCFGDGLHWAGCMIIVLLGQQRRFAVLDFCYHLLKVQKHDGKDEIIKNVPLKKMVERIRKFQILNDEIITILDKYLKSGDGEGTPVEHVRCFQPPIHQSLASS
UniProt P38919: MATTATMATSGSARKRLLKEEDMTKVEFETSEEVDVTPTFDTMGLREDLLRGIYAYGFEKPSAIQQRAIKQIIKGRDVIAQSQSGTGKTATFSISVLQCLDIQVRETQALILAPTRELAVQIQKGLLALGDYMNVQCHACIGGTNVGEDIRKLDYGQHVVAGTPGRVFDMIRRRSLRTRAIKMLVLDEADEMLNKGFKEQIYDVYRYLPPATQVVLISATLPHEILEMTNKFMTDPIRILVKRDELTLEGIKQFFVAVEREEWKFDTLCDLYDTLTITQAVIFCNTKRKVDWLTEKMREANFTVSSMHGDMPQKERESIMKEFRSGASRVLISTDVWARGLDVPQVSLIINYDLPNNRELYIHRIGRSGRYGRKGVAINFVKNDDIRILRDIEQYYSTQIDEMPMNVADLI
UniProt P06730: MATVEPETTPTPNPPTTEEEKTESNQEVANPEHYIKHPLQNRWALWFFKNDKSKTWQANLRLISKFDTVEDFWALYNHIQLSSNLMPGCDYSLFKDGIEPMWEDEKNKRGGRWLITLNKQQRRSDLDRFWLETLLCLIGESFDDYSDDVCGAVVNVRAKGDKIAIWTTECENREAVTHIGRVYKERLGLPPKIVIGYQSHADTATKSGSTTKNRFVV

T2: CPEB3-GFP (cytoplasmic polyadenylation element binding protein 3, GFP-tagged), expressed in HEK293T (mouse) (UniProt Q7TN99)
T2 sequence: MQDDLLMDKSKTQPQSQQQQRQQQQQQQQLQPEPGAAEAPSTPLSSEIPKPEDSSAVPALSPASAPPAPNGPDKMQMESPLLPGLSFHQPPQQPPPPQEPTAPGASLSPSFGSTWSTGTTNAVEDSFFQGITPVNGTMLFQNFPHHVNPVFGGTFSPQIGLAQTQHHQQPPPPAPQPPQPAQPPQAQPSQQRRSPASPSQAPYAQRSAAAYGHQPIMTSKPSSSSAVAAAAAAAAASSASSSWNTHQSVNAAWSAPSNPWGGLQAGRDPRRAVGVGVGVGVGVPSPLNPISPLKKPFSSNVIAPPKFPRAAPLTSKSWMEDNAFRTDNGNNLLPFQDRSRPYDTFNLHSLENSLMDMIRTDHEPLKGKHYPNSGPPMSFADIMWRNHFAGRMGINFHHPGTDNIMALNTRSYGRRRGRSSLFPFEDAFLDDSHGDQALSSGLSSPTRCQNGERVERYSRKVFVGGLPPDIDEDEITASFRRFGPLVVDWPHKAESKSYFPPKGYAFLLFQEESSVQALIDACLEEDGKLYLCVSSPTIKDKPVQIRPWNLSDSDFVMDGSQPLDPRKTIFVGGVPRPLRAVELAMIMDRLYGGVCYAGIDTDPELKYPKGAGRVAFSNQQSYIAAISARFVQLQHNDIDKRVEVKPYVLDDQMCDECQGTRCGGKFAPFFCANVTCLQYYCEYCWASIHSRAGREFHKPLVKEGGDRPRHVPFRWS

T3: CPEB3 (full-length), expressed in mouse neuroblastoma N2A cells (mouse) (UniProt Q7TN99)
T3 sequence: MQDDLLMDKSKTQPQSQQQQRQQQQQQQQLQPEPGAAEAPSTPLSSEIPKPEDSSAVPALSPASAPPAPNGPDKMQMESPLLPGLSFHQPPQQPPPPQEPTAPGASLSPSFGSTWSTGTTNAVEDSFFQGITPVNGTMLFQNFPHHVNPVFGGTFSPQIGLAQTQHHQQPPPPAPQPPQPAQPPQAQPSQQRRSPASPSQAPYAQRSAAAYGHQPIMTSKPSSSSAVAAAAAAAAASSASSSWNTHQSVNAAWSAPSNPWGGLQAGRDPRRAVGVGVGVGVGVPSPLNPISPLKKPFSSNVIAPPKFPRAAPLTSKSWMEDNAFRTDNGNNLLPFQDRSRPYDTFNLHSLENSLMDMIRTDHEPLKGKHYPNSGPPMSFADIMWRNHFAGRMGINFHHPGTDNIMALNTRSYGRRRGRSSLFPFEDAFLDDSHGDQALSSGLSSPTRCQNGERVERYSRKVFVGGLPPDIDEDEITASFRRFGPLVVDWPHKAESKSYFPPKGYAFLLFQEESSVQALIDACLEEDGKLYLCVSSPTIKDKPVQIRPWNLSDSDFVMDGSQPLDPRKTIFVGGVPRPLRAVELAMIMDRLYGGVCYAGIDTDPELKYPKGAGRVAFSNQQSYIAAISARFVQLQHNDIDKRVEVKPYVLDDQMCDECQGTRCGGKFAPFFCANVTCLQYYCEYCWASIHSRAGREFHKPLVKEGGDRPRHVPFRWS


Columns and labels:
[1] = biological target: T1, CPEB3-HA (cytoplasmic polyadenylation element binding protein 3, HA-tagged), expressed in HEK293T (mouse); test: affinity purification with mass spectrometry; CPEB3-HA or CPEB3-GFP expressed in HEK293T under a CMV promoter, immunoprecipitated via the respective tag (HA-linked magnetic beads or GFP-Trap; RIPA + NEM lysate, overnight at 4 °C), on-bead trypsin digestion, LC-MS/MS; n = 5
[2] = biological target: T2, CPEB3-GFP (cytoplasmic polyadenylation element binding protein 3, GFP-tagged), expressed in HEK293T (mouse); test: as above
[3] = biological target: T3, CPEB3 (full-length), expressed in mouse neuroblastoma N2A cells (mouse); test: affinity purification with mass spectrometry; interactomes of N2A-expressed CPEB3 and S240-242A compared (Fischer's test); immunoprecipitation from RIPA + NEM lysate, LC-MS/MS

Molecule | binding [1] | binding [2] | binding [3]
CYFIP1 (HEK293T) (from UniProt Q7L576 1-1253) | binds | binds | 
Eukaryotic Translation Initiation Factor 4A3 (HEK293T) (from UniProt P38919 1-411) | binds | binds | 
Mago Nashi (HEK293T) (human (endogenous in HEK293T)) | binds | binds | 
eIF4e (HEK293T) (from UniProt P06730 1-217) | binds | binds | 
Mms19 (protein, UniProt Q9D071 1-1031) MAAATGLEEAVAPMGALCGLVQDFVMGQQEGPADQVAADVKSGGYTVLQVVEALGSSLENAEPRTRARGAQLLSQVLLQCHSLLSEKEVVHLILFYENRLKDHHLVVPSVLQGLRALSMSVALPPGLAVSVLKAIFQEVHVQSLLQVDRHTVFSIITNFMRSREEELKGLGADFTFGFIQVMDGEKDPRNLLLAFRIVHDLISKDYSLGPFVEELFEVTSCYFPIDFTPPPNDPYGIQREDLILSLRAVLASTPRFAEFLLPLLIEKVDSEILSAKLDSLQTLNACCAVYGQKELKDFLPSLWASIRREVFQTASERVEAEGLAALHSLTACLSCSVLRADAEDLLGSFLSNILQDCRHHLCEPDMKLVWPSAKLLQAAAGASARACEHLTSNVLPLLLEQFHKHSQSNQRRTILEMILGFLKLQQKWSYEDRDERPLSSFKDQLCSLVFMALTDPSTQLQLVGIRTLTVLGAQPGLLSAEDLELAVGHLYRLTFLEEDSQSCRVAALEASGTLATLYPGAFSRHLLPKLAEELHKGESDVARADGPTKCSRHFRCLQALSAVSTHPSIVKETLPLLLQHLCQANKGNMVTESSEVVAVCQSLQQVAEKCQQDPESYWYFHKTAVPCLFALAVQASMPEKESSVLRKVLLEDEVLAALASVIGTATTHLSPELAAQSVTCIVPLFLDGNTSFLPENSFPDQFQPFQDGSSGQRRLVALLTAFVCSLPRNVEIPQLNRLMRELLKQSCGHSCPFSSTAATKCFAGLLNKQPPGQQLEEFLQLAVGTVEAGLASESSRDQAFTLLLWVTKALVLRYHPLSACLTTRLMGLLSDPELGCAAADGFSLLMSDCTDVLTRAGHADVRIMFRQRFFTDNVPALVQGFHAAPQDVKPNYLKGLSHVLNRLPKPVLLPELPTLLSLLLEALSCPDSVVQLSTLSCLQPLLLEAPQIMSLHVDTLVTKFLNLSSSYSMAVRIAALQCMHALTRLPTSVLLPYKSQVIRALAKPLDDKKRLVRKEAVSARGEWFLLGSPGS |  |  | binds
Nek9 (protein, UniProt Q8K1R7 1-984) MSVLGEYERHCDSINSDFGSESGGGGDSGPGPSAVPGPRAGGGAAEQEELHYIPIRVLGRGAFGEATLYRRTEDDSLVVWKEVDLTRLSEKERRDALNEIVILALLQHDNIIAYYNHFMDNTTLLIELEYCNGGNLYDKILRQKDKLFEEEMVVWYLFQIVSAVSCIHKAGILHRDIKTLNIFLTKANLIKLGDYGLAKKLNSEYSMAETLVGTPYYMSPELCQGVKYNFKSDIWAVGCVIFELLTLKRTFDATNPLNLCVKIVQGIRAMEVDSSQYSLELIQLVHACLDQDPEQRPAADALLDLPLLRTRRREMEEKVTLLNAPTKRPRSSTVTEAPIAVVTSRTSEVYVWGGGKSTPQKLDVIKSGCSARQVCAGNTHFAVVTVEKELYTWVNMQGGTKLHGQLGHGDKASYRQPKHVEKLQGKAIHQVSCGDDFTVCVTDEGQLYAFGSDYYGCMGVDKVSGPEVLEPMQLNFFLSNPVEQVSCGDNHVVVLTRNKEVYSWGCGEYGRLGLDSEEDYYTPQRVDVPKALIIVAVQCGCDGTFLLTQSGKVLACGLNEFNKLGLNQCMSGIINHEAYHEVPYTTSFTLAKQLSFYKIRTIAPGKTHTAAIDERGRLLTFGCNKCGQLGVGNYKKRLGINLLGGPLGGKQVIRVSCGDEFTIAATDDNHIFAWGNGGNGRLAMTPTERPHGSDICTSWPRPIFGSLHHVPDLSCRGWHTILIVEKVLNSKTIRSNSSGLSIGTVVQSSSPGGGIGGGGGGGGGGGGEEEDSQQESETPDPSGGFRGTMEADRGMEGLISPTEAVGNSCGASSSCPGWLRKELENAEFIPMPDSPAPLSAAFSQSEKDTLPYEELQGLKVASEVPPEPQRAAGAWPPRLDPAVPCVGKALTSAACACSALQVEVDRLQALVLKCLEEQQKLQQENLQMFTQLQKLNKKLEGGQQVGMHSRGTQTAKEEMEMDPKPDLDSESWCLLGTDSCRPSL |  |  | binds
Sept6 (protein, UniProt Q9R1T4 1-434) MAAADIARQVGEDCRTVPLAGHVGFDSLPDQLVNKSVSQGFCFNILCVGETGLGKSTLMDTLFNTKFEGEPATHTQPGVQLQSNTYDLQESNVGLKLTIVSTVGFGDQINKEDSYKPIVEFIDAQFEAYLQEELKIRRVLHSYHDSRIHVCLYFIAPTGHSLKSLDLVTMKKLDSKVNIIPVIAKSDAISKSELAKFKIKITSELVSNGVQIYQFPTDDESVSEINGTMNAHLPFAVVGSTEEVKIGNKMMRARQYPWGTVQVENEAHCDFVKLREMLIRVNMEDLREQTHARHYELYRRCKLEEMGFKDTDPDSKPFSLQETYEAKRNEFLGELQKKEEEMRQMFVQRVKEKEAELKEAEKELHEKFDRLKKLHQEEKKKLEDKKKCLDEEMNAFKQRKAAAELLQSQGSQAGGSQTLKRDKEKKNNPWLCIE |  |  | binds
Srp14 (protein, UniProt P16254 1-110) MVLLESEQFLTELTRLFQKCRSSGSVFITLKKYDGRTKPIPRKSSVEGLEPAENKCLLRATDGKRKISTVVSSKEVNKFQMAYSNLLRANMDGLKKRDKKNKSKKSKPAQ |  |  | binds
Tsr1 (protein, UniProt Q5SWD9 1-803) MAAHRSGPLKQQNKAHKGGRHHGGGSAQRDSKGRVGPKILCKKLKRQLSRIDQRHRASQLRKQKRESVLAEKRQLGSKDGPPHQVLVVPLHSRISLPEAFKLLQNEDLGTVYLSERGSTQSFMLLCPSLKHRWFFTYARPGDLHTLLDMAKVADTILFLLDPLEGWDSTGDYCLSCLFAQGLPTYTLAVQGLSGFPPKKQIDARKKLSKMVEKRFPEDKLLLLDTQQESGMLLRQLANQKQRHLAFRDRRAYLFAHVADFVPSEESDLVGTLKISGYVRGRTLNVNSLLHIVGHGDFQMNQIDAPVDPFPLNPRVIKSQKKPNMAMEVCVTDAAPDMEEDLKVLMKADPDHQESLQTEAIPDPMEGEQTWPTEEELDEADDLLKQRSRVVKKVPKGTSSYQAEWILDEGDESDGEGGEYDDIQHEGFMEEESQDGSGEEEEEECETMTLGESVRDDLYDEKVDAEDEERMLEKYKQERLEEMFPDEMDTPRDVAARIRFQKYRGLKSFRTSPWDPKENLPRDYARIFQFQNFVNTRKRIFKEIEEKEAEGAEVGWYVTLHVSDVPVSVVEYFRQGAPLIAFSLLPYEQKMSVLNMVVSRNPGNTEPVKAKEELIFHCGFRRFRASPLFSQHTAADKHKFQRFLTADAAFVVTVFAPITFPPASVLLFKQRRNGMHSLIATGHLFSVDPDRMVIKRVVLSGHPFKIFTKMAVVRYMFFNREDVMWFKPVELRTKWGRRGHIKEPLGTHGHMKCSFDGKLKSQDTVLMNLYKRVFPKWTYDPYVPEPVPWVKSDISSTVSEVDME |  |  | binds
Utp23 (protein, UniProt Q9CX11 1-249) MKITRQKHAKKHLGFFRNNFGVREPYQILLDGTFCQAALRGRIQLRDQLPRYLMGETQLCTTRCVLKELETLGKELYGAKLIAQKCQVRNCPHFKSPVSGSECLLSMVDEGNPHHYFVATQDQNLSVKVKRTPGIPLMFIIQNTIVLDKPSPRTVAFVKAVEAGQLVSVHEKQSIKQLKEEQGLVRNPDLRRRRRKKKKVGGPNPLSCLKKKKKAQDTKSPASEKKRKRKRIRNRSTLKVSSEQQGAEG |  |  | binds
Vapa (protein, UniProt Q9WV55 1-249) MASASGAMAKHEQILVLDPPSDLKFKGPFTDVVTTNLKLQNPSDRKVCFKVKTTAPRRYCVRPNSGIIDPGSIVTVSVMLQPFDYDPNEKSKHKFMVQTIFAPPNISDMEAVWKEAKPDELMDSKLRCVFEMPNENDKLNDMEPSKAVPLNASKQDGPLPKPHSVSLNDTETRKLMEECKRLQGEMMKLSEENRHLRDEGLRLRKVAHSDKPGSTSAVSFRDNVTSPLPSLLVVIAAIFIGFFLGKFIL |  |  | binds
